The values below come from publication PMC4519132.

Chains of the proteins cited; added tags and fusions are not shown.
UniProt Q9VT57: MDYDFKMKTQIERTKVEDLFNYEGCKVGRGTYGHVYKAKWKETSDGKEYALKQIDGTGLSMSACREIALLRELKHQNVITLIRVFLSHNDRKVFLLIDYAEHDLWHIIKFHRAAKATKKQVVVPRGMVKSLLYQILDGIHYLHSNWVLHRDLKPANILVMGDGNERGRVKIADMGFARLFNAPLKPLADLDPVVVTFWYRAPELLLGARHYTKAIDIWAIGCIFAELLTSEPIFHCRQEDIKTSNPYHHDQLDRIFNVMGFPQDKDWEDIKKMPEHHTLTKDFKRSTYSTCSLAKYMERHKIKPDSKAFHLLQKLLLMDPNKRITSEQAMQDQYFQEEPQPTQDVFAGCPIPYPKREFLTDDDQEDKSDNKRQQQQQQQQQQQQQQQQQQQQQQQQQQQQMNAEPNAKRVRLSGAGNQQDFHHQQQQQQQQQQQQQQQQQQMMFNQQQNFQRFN

In experiment [1] the target is T1, USP-AF1 (1-100AA), two-hybrid bait (Drosophila) (UniProt P20153).
T1 sequence: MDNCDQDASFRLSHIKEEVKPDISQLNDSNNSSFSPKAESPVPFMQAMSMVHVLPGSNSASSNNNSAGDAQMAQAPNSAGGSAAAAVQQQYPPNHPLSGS
Put plainly: two-hybrid; EcR/USP fragments in pGBKT7 (bait), Drosophila Med14/CDK8 in pGADT7 (prey), in yeast cells; the ligand 20E not present.

The target of experiment [2] is T2, USP-AF2 (206-509AA), two-hybrid bait (Drosophila) (UniProt P20153).
T2 sequence: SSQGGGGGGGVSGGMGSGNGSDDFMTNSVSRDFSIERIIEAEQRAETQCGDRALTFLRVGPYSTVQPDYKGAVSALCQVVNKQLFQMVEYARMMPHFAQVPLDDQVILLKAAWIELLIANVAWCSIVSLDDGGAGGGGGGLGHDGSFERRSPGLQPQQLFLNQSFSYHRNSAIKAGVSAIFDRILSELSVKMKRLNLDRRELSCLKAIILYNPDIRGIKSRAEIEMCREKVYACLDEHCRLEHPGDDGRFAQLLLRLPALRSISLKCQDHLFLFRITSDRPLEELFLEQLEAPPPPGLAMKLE
Described as above.

The target in experiment [3] is T3, Ecdysone Receptor, isoform B1 (EcR-B1) (Drosophila melanogaster (endogenous in white prepupae)) (UniProt P34021).
T3 sequence: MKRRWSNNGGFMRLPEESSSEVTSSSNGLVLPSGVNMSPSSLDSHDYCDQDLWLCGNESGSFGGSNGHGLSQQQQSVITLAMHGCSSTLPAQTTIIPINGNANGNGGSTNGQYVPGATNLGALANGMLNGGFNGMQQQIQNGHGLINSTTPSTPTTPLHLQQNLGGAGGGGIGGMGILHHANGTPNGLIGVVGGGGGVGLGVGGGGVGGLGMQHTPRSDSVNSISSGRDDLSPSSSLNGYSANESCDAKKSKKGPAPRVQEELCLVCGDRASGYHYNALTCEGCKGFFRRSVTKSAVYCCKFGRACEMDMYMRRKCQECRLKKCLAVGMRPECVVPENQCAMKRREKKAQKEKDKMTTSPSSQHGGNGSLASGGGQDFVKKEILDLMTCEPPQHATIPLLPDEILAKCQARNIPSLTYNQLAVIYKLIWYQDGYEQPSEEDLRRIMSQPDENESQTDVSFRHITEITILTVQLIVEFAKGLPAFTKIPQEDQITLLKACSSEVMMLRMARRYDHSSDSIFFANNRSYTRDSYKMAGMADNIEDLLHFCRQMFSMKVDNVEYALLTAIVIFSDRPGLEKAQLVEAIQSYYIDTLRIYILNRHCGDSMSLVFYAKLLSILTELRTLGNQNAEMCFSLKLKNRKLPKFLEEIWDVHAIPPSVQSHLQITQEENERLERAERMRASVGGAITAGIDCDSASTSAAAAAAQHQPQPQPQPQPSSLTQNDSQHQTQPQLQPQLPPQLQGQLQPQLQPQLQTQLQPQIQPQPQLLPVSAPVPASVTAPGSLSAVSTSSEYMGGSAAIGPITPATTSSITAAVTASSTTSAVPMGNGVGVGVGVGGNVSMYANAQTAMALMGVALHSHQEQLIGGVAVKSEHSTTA
The experiment in a line: co-IP; lysates of 30 white prepupae (w1118; for USP with EcR-B1 also cdk8K185 and cycCY5 mutants); 5 ug primary antibody on Magnetic Protein G beads; lysis buffer 150 mM NaCl, 50 mM Tris pH 8.0, 5 mM EDTA, 5 mM DTT, 0.5% NP-40; 12-16 hr at 4 C; Western blot. Background: In western blotting, separated proteins are transferred to a membrane and probed.

Experiment [4] has as its target T4, Ultraspiracle (USP) (Drosophila melanogaster (endogenous in white prepupae)) (UniProt P20153).
T4 sequence: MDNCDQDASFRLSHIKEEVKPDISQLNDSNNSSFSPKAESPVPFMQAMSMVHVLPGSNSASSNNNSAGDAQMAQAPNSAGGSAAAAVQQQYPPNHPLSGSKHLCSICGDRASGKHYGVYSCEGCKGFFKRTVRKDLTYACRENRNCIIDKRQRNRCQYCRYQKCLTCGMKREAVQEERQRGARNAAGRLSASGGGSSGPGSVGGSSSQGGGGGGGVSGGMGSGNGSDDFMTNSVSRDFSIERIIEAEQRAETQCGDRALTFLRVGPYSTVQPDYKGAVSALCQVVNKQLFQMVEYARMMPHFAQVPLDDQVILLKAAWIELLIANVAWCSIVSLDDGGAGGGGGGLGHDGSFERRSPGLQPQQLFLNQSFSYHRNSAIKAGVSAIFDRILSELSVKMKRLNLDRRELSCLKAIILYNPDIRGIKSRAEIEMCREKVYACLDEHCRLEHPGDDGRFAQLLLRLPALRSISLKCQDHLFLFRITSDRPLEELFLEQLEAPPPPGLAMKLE
The experiment is described as above.

Experiment [5] deals with T3, Ecdysone Receptor, isoform B1 (EcR-B1) (Drosophila melanogaster (endogenous in white prepupae)). The experiment is described as above. This is another data set of the same source.
In experiment [6] the target is T1, USP-AF1 (1-100AA), two-hybrid bait (Drosophila). Put plainly: two-hybrid; EcR/USP fragments in pGBKT7 (bait), Drosophila Med14/CDK8 in pGADT7 (prey), in yeast cells; the ligand 20E not present. This is another data set of the same source.
Experiment [7] has as its target T2, USP-AF2 (206-509AA), two-hybrid bait (Drosophila). The description is as above. This is another data set of the same source.
Experiment [8] has as its target T4, Ultraspiracle (USP) (Drosophila melanogaster (endogenous in white prepupae)). The experiment in a line: co-IP; lysates of 30 white prepupae (w1118; for USP with EcR-B1 also cdk8K185 and cycCY5 mutants); 5 ug primary antibody on Magnetic Protein G beads; lysis buffer 150 mM NaCl, 50 mM Tris pH 8.0, 5 mM EDTA, 5 mM DTT, 0.5% NP-40; 12-16 hr at 4 C; Western blot. This is another data set of the same source.

Where two headings read alike, the source gives them in different places. These are yes or no findings as the source states them, for the method shown. For some assays here: Binding seen in cells or lysates may run through a third protein. Some entries that bind do so weakly or less than the wild type.

With “CDK8, two-hybrid prey (from UniProt Q9VT57 1-454) (enzyme)”, the binding entry in experiment [1] and in experiment [2] was “no binding” throughout. “cyclin-dependent kinase 8 (CDK8) (from UniProt Q9VT57 1-454) (enzyme)”: the binding result in experiment [3] and in experiment [4] was “binds” in each case.

B1: Ultraspiracle (USP) (receptor, UniProt P20153 1-508)
chain: T4 sequence
On to B1, for which the binding result in experiment [5] was “binds”.

B2: Med14 (159-320AA), fragment that contains the LXXLL motif, two-hybrid prey (domain or fragment, UniProt Q9W0P8 159-320)
chain: IRERIVPADAITPAEKRQTLLRLNQVIQHRLVTGKLLPQMREFRIRNGRVTFEVKHEFSVSLTVMGDNPTVPWRLLDIDVLVEDKETGDGKSLVHPLQVNYIHQLIQARLVENPNALSEVYNCLHYFCQSLQLEVLYTQTLRLNYERLDDNNITVEEYVPGV
For B2, the binding entry in experiment [6] and in experiment [7] was “no binding” each time.

B3: Ecdysone Receptor, isoform B1 (EcR-B1) (receptor, UniProt P34021 1-878)
chain: T3 sequence
On to B3, for which the binding entry in experiment [8] was “binds”.
